Laboratory results from publication PMC3203945.
Results are given in words; binding and its absence hold for the method and conditions named. Binding seen in cells or lysates may run through a third protein. Some binding calls cover weakened binding; strength is not graded here. For some assays here: Sequences can lack the tags named with a protein.

Protein sequences, listed by entry. Tags and fused reporters are not part of them. Lines headed by an entry give the natural chain unless they say otherwise; changes in a name come on top. Chains listed by the source or under a name are the forms on record and can include a tag or linker.
UniProt P48432: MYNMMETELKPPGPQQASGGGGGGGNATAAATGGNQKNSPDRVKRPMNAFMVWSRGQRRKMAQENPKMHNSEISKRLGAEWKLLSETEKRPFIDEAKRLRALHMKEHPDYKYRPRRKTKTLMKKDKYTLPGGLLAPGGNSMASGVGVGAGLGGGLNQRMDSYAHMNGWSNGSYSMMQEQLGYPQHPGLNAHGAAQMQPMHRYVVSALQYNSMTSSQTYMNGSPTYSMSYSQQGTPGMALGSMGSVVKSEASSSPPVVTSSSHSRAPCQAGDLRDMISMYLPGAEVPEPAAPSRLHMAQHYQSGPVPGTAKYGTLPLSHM
FLAG-Sox2-mut-c (P48432, form named): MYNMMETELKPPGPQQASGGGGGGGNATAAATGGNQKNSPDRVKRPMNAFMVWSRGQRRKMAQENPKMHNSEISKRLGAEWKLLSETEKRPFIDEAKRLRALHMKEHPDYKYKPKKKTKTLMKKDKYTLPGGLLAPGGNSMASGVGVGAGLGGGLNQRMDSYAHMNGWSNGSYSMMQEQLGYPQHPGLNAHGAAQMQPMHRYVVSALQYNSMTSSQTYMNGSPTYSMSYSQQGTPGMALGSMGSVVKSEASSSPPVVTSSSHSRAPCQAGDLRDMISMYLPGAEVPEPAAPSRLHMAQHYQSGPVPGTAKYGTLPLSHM

Legend:
GST-Sox2 = GST-Sox2 (UniProt P48432); assay: pull-down; bacterially expressed GST-Sox2 incubated with lysates of MCF7 cells expressing FLAG-Sox2 wild-type or mutant-c, with or without FLAG-CARM1; only the target purified
[1] = biological target: T1, FLAG-CARM1 (coactivator-associated arginine methyltransferase 1), expressed in MCF7 cells (UniProt Q9WVG6); assay: co-IP; whole cell extracts of MCF7 cells transfected with FLAG-CARM1 and GFP-Sox2; immunoprecipitation with anti-FLAG, blot with anti-GFP or anti-FLAG; 0.2% NP-40 to lyse cells and wash beads
T1 sequence: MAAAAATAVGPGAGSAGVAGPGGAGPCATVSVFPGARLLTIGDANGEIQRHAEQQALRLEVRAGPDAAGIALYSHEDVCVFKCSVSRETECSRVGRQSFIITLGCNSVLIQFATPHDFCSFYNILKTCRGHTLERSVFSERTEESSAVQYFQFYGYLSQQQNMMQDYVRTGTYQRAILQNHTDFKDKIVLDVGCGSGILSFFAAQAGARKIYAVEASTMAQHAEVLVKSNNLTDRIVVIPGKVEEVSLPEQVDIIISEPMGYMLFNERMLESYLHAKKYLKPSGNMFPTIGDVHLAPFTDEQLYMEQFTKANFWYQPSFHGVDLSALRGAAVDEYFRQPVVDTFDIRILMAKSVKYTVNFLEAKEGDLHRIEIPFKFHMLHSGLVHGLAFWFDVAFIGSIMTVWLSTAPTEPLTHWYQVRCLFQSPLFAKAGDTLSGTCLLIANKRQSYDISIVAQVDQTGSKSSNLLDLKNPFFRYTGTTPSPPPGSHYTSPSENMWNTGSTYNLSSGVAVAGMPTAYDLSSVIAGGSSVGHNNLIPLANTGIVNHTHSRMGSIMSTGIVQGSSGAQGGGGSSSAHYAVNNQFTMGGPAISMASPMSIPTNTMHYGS

binding (GST-Sox2)	binding [1]	Substance
binds		FLAG-Sox2-mut-c (from UniProt P48432 1-319)
	binds	GFP-Sox2 (from UniProt P48432 1-319)
